For one compound, solubility results are on record in ChEMBL document CHEMBL1681665, “3-amido-4-anilinocinnolines as a novel class of CSF-1R inhibitor” (Bioorg Med Chem Lett, 2011).

The nature of this data set: Aqueous solubility of the compound. The settings on record: buffer.

Converted amounts (≈) assume the structure as drawn.

The compound `CCOc1cc2nnc(C(N)=O)c(Nc3ccc(F)cc3F)c2cc1N1CCN(C)CC1` came in with a solubility of 8 µM (≈ 3.54 µg/mL).

A word on the solubility: it is the dissolved amount per volume that the medium holds.
